## Screening data

Source: PubChem BioAssay AID504749 (NCATS, 2011).

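A panel of P. falciparum strains inside erythrocytes is exposed to compounds for three days, then a DNA-binding dye reports the amount of parasite DNA.
Each compound was titrated across a series from about 0.000037 to 29 µM.
The number is the fitted AC50, the concentration giving a half-maximal change in signal; a lower value means higher potency, whether the curve shows a decrease or an increase.
Calls follow the curve class and fit quality: every row here is inconclusive, covering signal-raising curves and weak, poorly fitted, partial or highest-dose-only inhibition curves.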

Values are in µM.
All entries here are filed as inconclusive.
Only part of the assay is shown, chiefly results filed as inconclusive.
A potency from a partial, single-point or poor curve is only a rough figure.
The first word of each remark tells which way the curve ran; it can be opposite to the aim of the assay.

SMILES: CC(C)CCC(=O)OC1CCC2C3CCC4=CC(=O)CC[C@]4(C)C3CC[C@]12C (some centres undefined)
setting: CP335
potency (µM): 16.94
remark: inhibitor, single point

SMILES: CC(C)CCC(=O)OC1CCC2C3CCC4=CC(=O)CC[C@]4(C)C3CC[C@]12C (some centres undefined)
setting: 3D7
potency (µM): 14.13
remark: inhibitor, single point

SMILES: CC(C)CCC(=O)OC1CCC2C3CCC4=CC(=O)CC[C@]4(C)C3CC[C@]12C (some centres undefined)
setting: CP291
potency (µM): 5.358
remark: inhibitor, partial curve

SMILES: CC(C)CCC(=O)OC1CCC2C3CCC4=CC(=O)CC[C@]4(C)C3CC[C@]12C (some centres undefined)
setting: PC15
potency (µM): 11.22
remark: inhibitor, single point

SMILES: CC(C)CCC(=O)OC1CCC2C3CCC4=CC(=O)CC[C@]4(C)C3CC[C@]12C (some centres undefined)
setting: CP252
potency (µM): 11.22
remark: inhibitor, single point

SMILES: CC(C)CCC(=O)OC1CCC2C3CCC4=CC(=O)CC[C@]4(C)C3CC[C@]12C (some centres undefined)
setting: P93_24
potency (µM): 12.59
remark: inhibitor, single point

SMILES: CC(C)CCC(=O)OC1CCC2C3CCC4=CC(=O)CC[C@]4(C)C3CC[C@]12C (some centres undefined)
setting: N140
potency (µM): 14.13
remark: inhibitor, single point

SMILES: CC(C)CCC(=O)OC1CCC2C3CCC4=CC(=O)CC[C@]4(C)C3CC[C@]12C (some centres undefined)
setting: TAB109
potency (µM): 10
remark: inhibitor, single point

SMILES: CC(C)CCC(=O)OC1CCC2C3CCC4=CC(=O)CC[C@]4(C)C3CC[C@]12C (some centres undefined)
setting: AA1029
potency (µM): 10
remark: inhibitor, single point

SMILES: CC(C)CCC(=O)OC1CCC2C3CCC4=CC(=O)CC[C@]4(C)C3CC[C@]12C (some centres undefined)
setting: PAD
potency (µM): 10
remark: inhibitor, single point

SMILES: CC(C)CCC(=O)OC1CCC2C3CCC4=CC(=O)CC[C@]4(C)C3CC[C@]12C (some centres undefined)
setting: HB3
potency (µM): 12.59
remark: inhibitor, single point

SMILES: CC(C)CCC(=O)OC1CCC2C3CCC4=CC(=O)CC[C@]4(C)C3CC[C@]12C (some centres undefined)
setting: TAB165
potency (µM): 17.78
remark: inhibitor, single point

SMILES: Cc1cccc(C)c1OCC(C)N (centres undefined)
setting: AS120
potency (µM): 11.22
remark: inhibitor, partial curve

SMILES: Cc1cccc(C)c1OCC(C)N (centres undefined)
setting: CP325
potency (µM): 2.133
remark: inhibitor, partial curve, poor fit

SMILES: Cc1cccc(C)c1OCC(C)N (centres undefined)
setting: CP265
potency (µM): 12.59
remark: inhibitor, single point

SMILES: Cc1cccc(C)c1OCC(C)N (centres undefined)
setting: CP269
potency (µM): 6.746
remark: inhibitor, partial curve, poor fit

SMILES: Cc1cccc(C)c1OCC(C)N (centres undefined)
setting: 7G8
potency (µM): 11.22
remark: inhibitor, single point

SMILES: Cc1cccc(C)c1OCC(C)N (centres undefined)
setting: CP266
potency (µM): 0.0005
remark: inhibitor

SMILES: Cc1cccc(C)c1OCC(C)N (centres undefined)
setting: CP191
potency (µM): 4.467
remark: inhibitor, partial curve

SMILES: Cc1cccc(C)c1OCC(C)N (centres undefined)
setting: PC49
potency (µM): 10
remark: inhibitor, single point

SMILES: CCCCCc1ccc(C)cc1O
setting: DIV14
potency (µM): 19.01
remark: inhibitor, single point

SMILES: CCCCCc1ccc(C)cc1O
setting: DIV17
potency (µM): 19.01
remark: inhibitor, single point

SMILES: CCCCCc1ccc(C)cc1O
setting: CP247
potency (µM): 14.13
remark: activator, single point

SMILES: CCCCCc1ccc(C)cc1O
setting: TAB165
potency (µM): 10
remark: inhibitor, single point

SMILES: CCCCCc1ccc(C)cc1O
setting: parasite line B
potency (µM): 19.95
remark: inhibitor, single point

SMILES: CCCCCc1ccc(C)cc1O
setting: GB4
potency (µM): 19.01
remark: inhibitor, single point

SMILES: COc1ccc([C@@H]2CC(=O)c3c(O)cc(O[C@H]4O[C@@H](CO[C@H]5O[C@@H](C)[C@@H](O)[C@@H](O)[C@@H]5O)[C@@H](O)[C@@H](O)[C@@H]4O)cc3O2)cc1O
setting: CP335
potency (µM): 2.031
remark: inhibitor, single point

SMILES: COc1ccc([C@@H]2CC(=O)c3c(O)cc(O[C@H]4O[C@@H](CO[C@H]5O[C@@H](C)[C@@H](O)[C@@H](O)[C@@H]5O)[C@@H](O)[C@@H](O)[C@@H]4O)cc3O2)cc1O
setting: CP192
potency (µM): 8.087
remark: inhibitor, single point

SMILES: C[C@]12CCC(=O)C=C1CC[C@@H]1[C@@H]2CC[C@]2(C)C(=O)CC[C@@H]12
setting: ECU
potency (µM): 5.012
remark: inhibitor, full curve, poor fit